Assay results: paper PMC8294009 (Chemical Science, 2021)
Some peptides are written in HELM: one residue between dots, names in brackets for other building blocks, links after the first $. *1 amine or outer side, *2 acyl side, *3 side chain or, on linkers, in order; H or OH if unused. Bridges are numbered along the chain shown (N, C = ends). X1 = O=C(C=NOCCCCCCOc1cc(C[*:2])cc(C[*:3])c1)[*:1]; X3 = O=C(C=NOCCCOc1cc(C[*:2])cc(C[*:3])c1)[*:1]; X2 = O=C(C=NOCc1cc(C[*:2])cc(C[*:3])c1)[*:1]

test: peptide synthesis; conditions: cyclisation step

Substance	cyclisation yield
HDCYLEC-NH2 (linker N-3-7 via X2; SMILES CC(C)C[C@@H]1NC(=O)[C@H](Cc2ccc(O)cc2)NC(=O)[C@@H]2CSCc3cc(cc(c3)CSC[C@@H](C(N)=O)NC(=O)[C@H](CCC(=O)O)NC1=O)CON=CC(=O)N[C@@H](Cc1c[nH]cn1)C(=O)N[C@@H](CC(=O)O)C(=O)N2)	43%
PEPTIDE1{S.H.D.C.Y.L.E.C.[am]}|CHEM1{[mXyl]}$PEPTIDE1,CHEM1,4:R3-1:R1|PEPTIDE1,CHEM1,8:R3-1:R2$$$V2.0	27%
PEPTIDE1{S.I.C.R.F.F.C.G.G.G.[am]}|CHEM1{[PFS]}$PEPTIDE1,CHEM1,3:R3-1:R1|PEPTIDE1,CHEM1,7:R3-1:R2$$$V2.0	40%
PEPTIDE1{S.T.C.Q.G.E.C.G.G.G.[am]}|CHEM1{[PFS]}$PEPTIDE1,CHEM1,3:R3-1:R1|PEPTIDE1,CHEM1,7:R3-1:R2$$$V2.0	31%
TCQGECGGG-NH2 (linker N-2-6 via X3; SMILES C[C@@H](O)[C@@H]1NC(=O)C=NOCCCOc2cc3cc(c2)CSC[C@H](NC1=O)C(=O)N[C@@H](CCC(N)=O)C(=O)NCC(=O)N[C@@H](CCC(=O)O)C(=O)N[C@H](C(=O)NCC(=O)NCC(=O)NCC(N)=O)CSC3)	47%
WDYRECYLEC-NH2 (linker N-6-10 via X1; SMILES CC(C)C[C@@H]1NC(=O)[C@H](Cc2ccc(O)cc2)NC(=O)[C@@H]2CSCc3cc(cc(c3)OCCCCCCON=CC(=O)N[C@@H](Cc3c[nH]c4ccccc34)C(=O)N[C@@H](CC(=O)O)C(=O)N[C@@H](Cc3ccc(O)cc3)C(=O)N[C@@H](CCCNC(=N)N)C(=O)N[C@@H](CCC(=O)O)C(=O)N2)CSC[C@@H](C(N)=O)NC(=O)[C@H](CCC(=O)O)NC1=O)	42%
WDYRECYLEC-NH2 (linker N-6-10 via X2; SMILES CC(C)C[C@@H]1NC(=O)[C@H](Cc2ccc(O)cc2)NC(=O)[C@@H]2CSCc3cc(cc(c3)CSC[C@@H](C(N)=O)NC(=O)[C@H](CCC(=O)O)NC1=O)CON=CC(=O)N[C@@H](Cc1c[nH]c3ccccc13)C(=O)N[C@@H](CC(=O)O)C(=O)N[C@@H](Cc1ccc(O)cc1)C(=O)N[C@@H](CCCNC(=N)N)C(=O)N[C@@H](CCC(=O)O)C(=O)N2)	54%
YCKRAHKNC-NH2 (linker N-2-9 via X1; SMILES C[C@@H]1NC(=O)[C@H](CCCNC(=N)N)NC(=O)[C@H](CCCCN)NC(=O)[C@@H]2CSCc3cc(cc(c3)OCCCCCCON=CC(=O)N[C@@H](Cc3ccc(O)cc3)C(=O)N2)CSC[C@@H](C(N)=O)NC(=O)[C@H](CC(N)=O)NC(=O)[C@H](CCCCN)NC(=O)[C@H](Cc2c[nH]cn2)NC1=O)	14%

same assay, conditions: cyclisation step, bicyclic, sequence written open

Substance	cyclisation yield
Ac-CNTWNPWCPWDAPLCam-NH2	38%
Ac-CSWPARCLHQDLC-NH2	33%
H-SICRFFCGGG-NH2	55%
H-SNTWNPWCPWDAPL-cam	41%
H-SPCKKAHGAC-NH2	9%
H-SPCQRGHMFC-NH2	8.6%
H-SWCRGHDRTC-NH2	6%

same assay, conditions: cyclisation step, thioether ring, sequence written open

Substance	cyclisation yield
H-SQCKRAHAEC-NH2	10%
H-STCQGECGGG-NH2	19%
H-SWDYRECYLEC-NH2	12%
H-SYCKRAHKNC-NH2	32%
